Assay [1] concerns the target Rab11 (mouse (endogenous in mLMECs)). As to the kind of experiment: co-IP; lysates of control or NRP2 siRNA-transfected mLMECs grown 48 h on fibronectin; 100 μg protein incubated overnight at 4°C with protein-G Dynabeads coupled to an antibody (anti-NRP2; in the reverse direction anti-ITGA5 or anti-Rab11); Western blot.
Assay [2] deals with α5 integrin (ITGA5) (mouse (endogenous in mLMECs)). The description is as above.

Results are given in words; binding and its absence hold for the method and conditions named. In cells and extracts the contact can be indirect. A result given as binding can be weak or reduced; the word gives no strength.

B1: Neuropilin-2 (NRP2) (receptor, UniProt O35375 21-931)
chain: RSQQDPPCGGRLNSKDAGYITSPGYPQDYPSHQNCEWIVYAPEPNQKIVLNFNPHFEIEKHDCKYDFIEIRDGDSESADLLGKHCGNIAPPTIISSGSVLYIKFTSDYARQGAGFSLRYEIFKTGSEDCSKNFTSPNGTIESPGFPEKYPHNLDCTFTILAKPRMEIILQFLTFDLEHDPLQVGEGDCKYDWLDIWDGIPHVGPLIGKYCGTKTPSKLRSSTGILSLTFHTDMAVAKDGFSARYYLIHQEPPENFQCNVPLGMESGRIANEQISASSTFSDGRWTPQQSRLHGDDNGWTPNLDSNKEYLQVDLRFLTMLTAIATQGAISRETQKGYYVKSYKLEVSTNGEDWMVYRHGKNHKIFQANNDATEVVLNKLHMPLLTRFIRIRPQTWHLGIALRLELFGCRVTDAPCSNMLGMLSGLIADTQISASSTREYLWSPSAARLVSSRSGWFPRNPQAQPGEEWLQVDLGTPKTVKGVIIQGARGGDSITAVEARAFVRKFKVSYSLNGKDWEYIQDPRTQQTKLFEGNMHYDTPDIRRFDPVPAQYVRVYPERWSPAGIGMRLEVLGCDWTDSKPTVETLGPTVKSEETTTPYPMDEDATECGENCSFEDDKDLQLPSGFNCNFDFPEETCGWVYDHAKWLRSTWISSANPNDRTFPDDKNFLKLQSDGRREGQYGRLISPPVHLPRSPVCMEFQYQAMGGHGVALQVVREASQESKLLWVIREDQGSEWKHGRIILPSYDMEYQIVFEGVIGKGRSGEISIDDIRISTDVPLENCMEPISAFAGEDFKVDIPETHGGEGYEDEIDDEYEGDWSNSSSSTSGAGDPSSGKEKSWLYTLDPILITIIAMSSLGVLLGATCAGLLLYCTCSYSGLSSRSCTTLENYNFELYDGLKHKVKINHQKCCSEA
Turning to B1, the binding entry in assay [1] and in assay [2] was “binds” throughout.

The record behind these values is article PMC7264094.
